Measured values as given in patent publication WO2007014744A2 (dated 2007).
No constants are given. Whether binding was seen depends on the method and setting. Some entries that bind do so weakly or less than the wild type.

Protein sequences, listed by entry. Tags and fused reporters are not part of them.
UniProt Q12884: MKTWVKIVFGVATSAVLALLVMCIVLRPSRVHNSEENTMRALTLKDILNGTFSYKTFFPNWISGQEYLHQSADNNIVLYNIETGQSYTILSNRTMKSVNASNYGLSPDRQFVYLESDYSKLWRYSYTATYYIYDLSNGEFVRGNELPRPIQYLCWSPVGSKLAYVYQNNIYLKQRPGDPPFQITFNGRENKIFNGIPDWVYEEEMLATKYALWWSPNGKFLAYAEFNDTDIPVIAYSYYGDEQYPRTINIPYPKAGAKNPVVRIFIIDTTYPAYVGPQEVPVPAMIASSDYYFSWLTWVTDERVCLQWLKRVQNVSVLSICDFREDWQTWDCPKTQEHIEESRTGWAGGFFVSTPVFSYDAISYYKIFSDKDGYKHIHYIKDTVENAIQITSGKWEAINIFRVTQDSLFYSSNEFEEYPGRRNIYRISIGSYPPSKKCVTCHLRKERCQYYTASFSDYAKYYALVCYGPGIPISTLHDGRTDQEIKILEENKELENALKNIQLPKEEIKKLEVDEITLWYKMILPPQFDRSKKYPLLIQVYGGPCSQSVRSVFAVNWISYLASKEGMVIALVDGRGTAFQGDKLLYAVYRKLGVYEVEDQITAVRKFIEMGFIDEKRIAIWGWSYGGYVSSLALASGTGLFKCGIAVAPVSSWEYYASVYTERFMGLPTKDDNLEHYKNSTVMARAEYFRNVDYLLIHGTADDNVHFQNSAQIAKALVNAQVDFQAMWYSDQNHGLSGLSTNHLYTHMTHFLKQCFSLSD

Target: fibroblast activation protein (FAP) (UniProt Q12884)
Test: flow cytometry on HT1080FAP against HT1080 cells, 5 ug/ml fusion protein, anti-Flag M2 detection; binds less well than CD95-TNC-PL-SC40-CD95L

B1: CD95-PL-TNC-SC40-CD95L (protein)
chain: VARLSSKSVNAQVTDINSKGLELRKTVTTVETQNLEGLHHDGQFCHKPCPPGERKARDCTVNGDEPDCVPCQEGKEYTDKAHFSSKCRRCRLCDEGHGLEVEINCTRTQNTKCRCKPNFFCNSTVCEHCDPCTKCEHGIIKECTLTSNTKCKEEGSRSNHPVGLLARGGGHPVGLLARGGGHPVGLLARACGCAAAPDIKDLLSRLEELEGLVSSLREQGTGGGSQVQLVQSGGGMVEPGGSLRLSCAASGFTFSNAWMSWVRQAPGKGLEWVGRIKSKAGGGTAEYAAPVKGRFTISRDDSQNTLYLQMNSLKTDDTAVYYCTTHVYGAPRNWGQGSLVTVSSASTKGPKLEEGEFSEARVQSVLTQPPSVSAAPGQKVTISCSGSSSNIGNNYVSWYVQLPGTAPKLLIYDNNKRFSGVPDRFSGSKSGTSATLGITGLQTGDEADYYCGAWDGSLREAVFGGGTKVTVLGDYKDDDDKEKKELRKVAHLTGKSNSRSMPLEWEDTYGIVLLSGVKYKKGGLVINETGLYFVYSKVYFRGQSCNNLPLSHKVYMRNSKYPQDLVMMEGKMMSYCTTGQMWARSSYLGAVFNLTSADHLYVNVSELSLVNFEESQTFFGLYKL
binding: binds
